No constants are given. Whether binding was seen depends on the method and setting. Some binding calls cover weakened binding; strength is not graded here. Where a sequence is shown, tags or fusion partners need not be part of it.

B1: FLT-1 Domain 4 Construct 1 (residues 330-429), His-tagged (receptor)
chain: DKAFITVKHRKQQVLETVAGKRSYRLSMKVKAFPSPEVVWLKDGLPATEKSARYLTRGYSLIIKDVTEEDAGNYTILLSIKQSNVFKNLTATLIVNVKPQ
notes: not shown: histidine tag from the E. coli expression vector
B2: FLT-1 Domain 4 Construct 2 (residues 330-440), His-tagged (receptor)
chain: DKAFITVKHRKQQVLETVAGKRSYRLSMKVKAFPSPEVVWLKDGLPATEKSARYLTRGYSLIIKDVTEEDAGNYTILLSIKQSNVFKNLTATLIVNVKPQIYEKAVSSFPD
notes: as for B1
B3: FLT-1 Domain 4 Construct 3 (residues 338-429), His-tagged (receptor, not shown: small tags and cut ends)
chain: HRKQQVLETVAGKRSYRLSMKVKAFPSPEVVWLKDGLPATEKSARYLTRGYSLIIKDVTEEDAGNYTILLSIKQSNVFKNLTATLIVNVKPQ

For the assay, the target named is T1, soluble FLT-1 (sFLT-1) (Homo sapiens, UniProt P17948-2 27-687, limits assumed).
T1 construct: the whole FLT-1 entry is named
Briefly: BIAcore; inhibition of sFLT-1 binding to immobilised 2B2 after pre-incubation.
On to B1, for which the binding result was “binds”. Next, B2: “binds”; B3: “binds”.

Source of the values: US20030207391A1 (published 2003).
